Measured values taken from article PMC7819943, “Rice protein-binding microarrays: a tool to detect cis-acting elements near promoter regions in rice”.
This is one part of the list.

Molecular target: T1, OsSMF1 (Oryza sativa, UniProt Q6ZLB0 1-436)
T1 sequence: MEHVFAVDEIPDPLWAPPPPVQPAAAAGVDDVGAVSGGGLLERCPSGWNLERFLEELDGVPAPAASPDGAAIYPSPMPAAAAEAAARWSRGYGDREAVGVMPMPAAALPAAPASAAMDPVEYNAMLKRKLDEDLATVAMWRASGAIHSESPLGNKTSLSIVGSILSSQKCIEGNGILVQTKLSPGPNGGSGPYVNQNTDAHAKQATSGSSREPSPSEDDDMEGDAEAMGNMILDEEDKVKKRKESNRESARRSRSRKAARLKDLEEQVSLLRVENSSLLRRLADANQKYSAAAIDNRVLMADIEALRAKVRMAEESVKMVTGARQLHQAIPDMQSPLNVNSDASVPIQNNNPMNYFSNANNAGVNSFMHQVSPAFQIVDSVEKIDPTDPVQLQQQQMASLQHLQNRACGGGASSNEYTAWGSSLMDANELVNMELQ
Experiment: protein-binding microarray (RPBM); PBS, 2% BSA, 51.3 ng/ul salmon testes DNA, 50 uM zinc acetate, 200 nM TF, 25 C, 1 h; high values mean tight binding
Conditions: protein: recombinant; tags: N-terminal polyhistidine and DsRed monomer fusion (pET32a); chain copies: 2; label: CyDye5-dUTP incorporated in the synthesized complementary strand; 3' TTTTT single-stranded linker to array surface; dsDNA, one strand shown
Method in brief: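 An Axon 4000B scanner gave the binding signal as per-feature fluorescence intensity in arbitrary units. This followed washing of a custom Agilent array that had been incubated for 1 h at 25 °C with 200 nM protein in PBS, 2% BSA, salmon testes DNA and 50 µM zinc acetate. The proteins were transcription factors fused at the N-terminus to polyhistidine and DsRed, expressed in E. coli BL21-CodonPlus and purified on Ni–NTA.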

Row | Sequence | binding signal
1 | ATACTATTGAAAATCCACCTATATGTACGTAATATTCGTGCGGAGTCACCTAGTGCAG | 3760 fluorescence intensity (a.u.)
2 | ACTACTGTCACCCCGACTGAGTCAGCATGGAACCCAGATCCGGAGTCACCTAGTGCAG | 7180 fluorescence intensity (a.u.)
3 | TGCCTCACTTAATATGTGGCAAATTATGATATATTGTGGTCGGAGTCACCTAGTGCAG | 3380 fluorescence intensity (a.u.)
4 | TACCGCCTCATTTTGTGTGTTTCGGTGTGACGCAAGAGGCCGGAGTCACCTAGTGCAG | 3720 fluorescence intensity (a.u.)
5 | AATCTGCACCGTCCGTCGAGCCTGCGGTCGTCACAGGCCGCGGAGTCACCTAGTGCAG | 4430 fluorescence intensity (a.u.)
6 | GTCTAGATTCGTTGTATTAGGATGTGTCACATCCAATACTCGGAGTCACCTAGTGCAG | 4230 fluorescence intensity (a.u.)
7 | CCTTGCTTGCTCATGTCATCCACCTGTGGTGGTTCTGGTGCGGAGTCACCTAGTGCAG | 3970 fluorescence intensity (a.u.)
8 | CCACCCACCGCTCGCATCCACAGCTGCTGATTCGTAGGAGCGGAGTCACCTAGTGCAG | 30400 fluorescence intensity (a.u.)
9 | GAATTGAGCTTGACTGCCTGAGTCAACAAGGCAAGGCATCCGGAGTCACCTAGTGCAG | 4800 fluorescence intensity (a.u.)
10 | CGACACAACACACAGACACACCCACGGAATTCCGCGAATCCGGAGTCACCTAGTGCAG | 4520 fluorescence intensity (a.u.)
11 | TTCTCTCCGTCTTCCTCCAGCACTGAATTTGTCGCTGGCGCGGAGTCACCTAGTGCAG | 64900 fluorescence intensity (a.u.)
12 | CCTGTTGCACACCACACCTACCATGAGTTCCTTTCAATCACGGAGTCACCTAGTGCAG | 26900 fluorescence intensity (a.u.)
13 | CACTCCATCCGTTATTATAACCGTGTATAACAACTTCCTTCGGAGTCACCTAGTGCAG | 14000 fluorescence intensity (a.u.)
14 | GACGTTGCGTGTCTAGTGTTGTGTGCGTGTGCATCTACCACGGAGTCACCTAGTGCAG | 8650 fluorescence intensity (a.u.)
15 | AATTGTTGACTGAACTACCACGTAGGACCAAAACCGCTCTCGGAGTCACCTAGTGCAG | 5020 fluorescence intensity (a.u.)
16 | CCCGTTGCATCAGCCGTGACGCACTACCCGACTCCCGTGGCGGAGTCACCTAGTGCAG | 4350 fluorescence intensity (a.u.)
17 | TGGTTGGTTTGACGCTACACGGTTGGTGTGCAGGTCTGCGCGGAGTCACCTAGTGCAG | 3420 fluorescence intensity (a.u.)
18 | AGTAGTATAGGGGAGAGGGTGGGCGGGTGATCGCTGGGCGCGGAGTCACCTAGTGCAG | 3140 fluorescence intensity (a.u.)
19 | GAAGAAACTAATGATATATACGCAGATATTGTTAATAATGCGGAGTCACCTAGTGCAG | 34500 fluorescence intensity (a.u.)
20 | ACGAGTCGTGACATGAATCGCAGGTGGCAATAACCTCCTCCGGAGTCACCTAGTGCAG | 4450 fluorescence intensity (a.u.)
21 | CCAATCCTCTTCTCCATCCTATAAGACCCATTCTTCTTCTCGGAGTCACCTAGTGCAG | 3550 fluorescence intensity (a.u.)

An excerpt of these results, with tabs.
Row	Sequence	binding signal
4	TACCGCCTCATTTTGTGTGTTTCGGTGTGACGCAAGAGGCCGGAGTCACCTAGTGCAG	3720 fluorescence intensity (a.u.)
5	AATCTGCACCGTCCGTCGAGCCTGCGGTCGTCACAGGCCGCGGAGTCACCTAGTGCAG	4430 fluorescence intensity (a.u.)
6	GTCTAGATTCGTTGTATTAGGATGTGTCACATCCAATACTCGGAGTCACCTAGTGCAG	4230 fluorescence intensity (a.u.)

More results

Row | Sequence | binding signal
22 | CACGTGATCATAGATAGGATCTCACAGACCTGCTGATACTCGGAGTCACCTAGTGCAG | 3440 fluorescence intensity (a.u.)
23 | CACCCAGGTTCCGTGACTTGGTGGACTCTTGTCACGTGCTCGGAGTCACCTAGTGCAG | 4740 fluorescence intensity (a.u.)
24 | TCTACATCATGTTATCCGCGTCACATTACTAAAATCATAACGGAGTCACCTAGTGCAG | 5280 fluorescence intensity (a.u.)
25 | CTGGCCTGCCAGCTGAGAAACTTTGGTATTTTAGTCATGCCGGAGTCACCTAGTGCAG | 3150 fluorescence intensity (a.u.)
26 | AAAAGTCAATGGCGTCATACATTAAAATATGAAGGGAGTACGGAGTCACCTAGTGCAG | 4170 fluorescence intensity (a.u.)
27 | AGCGGCCGCCGATTACCCGAAGAACGTCACCTACCGCACTCGGAGTCACCTAGTGCAG | 4560 fluorescence intensity (a.u.)
28 | GGAGGCCTAGGTGGTGGTGGTGGTCTTGGTGGAGGAGGGGCGGAGTCACCTAGTGCAG | 5410 fluorescence intensity (a.u.)
29 | TTAAGTGTAGTCATGAGTTTTCGTGTTCAACGTTTGACTGCGGAGTCACCTAGTGCAG | 3580 fluorescence intensity (a.u.)
30 | TCACTTCTTGTTATCAATTATGACATGTCACATATGTATACGGAGTCACCTAGTGCAG | 5680 fluorescence intensity (a.u.)
31 | TCCCGCAATGGCGCGACCACAGCTACCCACGTCGGACGCCCGGAGTCACCTAGTGCAG | 18200 fluorescence intensity (a.u.)
32 | TCTCCTCCGGCCCCACACGTCAGACGCACCCACCATCTGTCGGAGTCACCTAGTGCAG | 9210 fluorescence intensity (a.u.)
33 | TCCACCGTCTGCTACTGCTAGCGTGCTACTGTCTCGCTGACGGAGTCACCTAGTGCAG | 3350 fluorescence intensity (a.u.)
34 | GTTCGAGAACCCGTCCACGTTCATCCCAAGCATATGCATCCGGAGTCACCTAGTGCAG | 3900 fluorescence intensity (a.u.)
35 | GTTTCTGGTTAAGACAATATAGCGTGCAGTCTCTATGTAACGGAGTCACCTAGTGCAG | 3180 fluorescence intensity (a.u.)
36 | ACATCTGCTAGTCTATACTAGAATCCATTCTGACACTTGTCGGAGTCACCTAGTGCAG | 3770 fluorescence intensity (a.u.)
37 | TCGCCTCAGCTTCCTGCACCGACTACTAATACTTGATATTCGGAGTCACCTAGTGCAG | 3460 fluorescence intensity (a.u.)
38 | ATGCTCGCCACGTCCGGATCCATCAACCACGTCTCCTCCACGGAGTCACCTAGTGCAG | 9390 fluorescence intensity (a.u.)
39 | CTATGTGATGCTGTAGTAAACATGTACTAATTACGGATTACGGAGTCACCTAGTGCAG | 8160 fluorescence intensity (a.u.)
40 | AAGAAAGAGATGATGACGTGGCGTCCTGACATATGGGGCCCGGAGTCACCTAGTGCAG | 32700 fluorescence intensity (a.u.)
41 | TTTGAAGCACAAGGATCGTACCGTGGCAGAGTATCTTCATCGGAGTCACCTAGTGCAG | 4000 fluorescence intensity (a.u.)
42 | GCCGTTCCTCCACGCCGCCGACGACGTCGCCTCCCTCCGTCGGAGTCACCTAGTGCAG | 3450 fluorescence intensity (a.u.)
